According to PubChem BioAssay AID2685 (National Center for Advancing Translational Sciences (NCATS), 2010):
Hit rate of the full screen: of about 320,000 compounds, about 2,100 (0.66%) were called active. Inconclusive means that the source gave no clear call. Such entries were picked first, then a sample of the others. Calls follow the shape of the dose curve; as a rule, active = well fitted inhibition curve with a large enough effect in the signal ratio, with a control signal flat (not every such curve was filed as active); inconclusive = small, poorly fitted or top-dose-only effect, or effect the other way, or a change in a side signal; inactive = flat fitted curve, though single readings scatter; the % refers to the signal ratio. Where the call is inconclusive, the potency comes from a doubtful curve fit.

Experiment: qHTS Assay for Lipid Storage Modulators in Drosophila S3 Cells
Conditions: BODIPY lipid droplet fluorescence, 18-24 h, cells fed with added oleic acid; lipid storage change, negative = inhibition: at 46.1 µM (top of the series) unless noted
In short: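 Drosophila S3 cells got compounds at several concentrations plus oleic acid (400 uM solution). Laser-scanning cytometry with 488 nm excitation read lipid droplets at 500-530 nm and cells at 575-640 nm. Percent activity was relative to 20 uM Triacsin C.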
% is scaled to controls: 0 for no effect and ±100 for the full control effect; potency is read from the fitted curve at half-maximal effect.

Structure (SMILES) | lipid storage change, negative = inhibition | Potency
O=c1c2ccc([N+](=O)[O-])cc2ncn1CCOc1ccccc1 | inconclusive: -29.2% | 
Cc1[nH]nc2nc(SCC(=O)NCCC3=CCCCC3)n(-c3ccc(Br)cc3)c(=N)c12 | inconclusive: -56.9% | 
O=C(Cn1cc(/C=C\[N+](=O)[O-])c2ccccc21)Nc1ccccc1 |  | inconclusive: 13 µM [falling, partial curve, poor fit]
Cc1nc(SCc2ccccc2)c2ccsc2n1 | inconclusive: -11.7% | 
Cc1ccc(-n2c(N)c(C(=O)N3CCOCC3)sc2=S)cc1 |  | inconclusive: 6.51 µM [cytotoxic, single point]
O=C(c1ccnc(Cl)c1)N1CCCC(Nc2ccc(F)cc2)C1 (configuration not stated) | inconclusive: -36.7% [at 0.00295 µM] | 
O=c1cc(N2CCCCC2)c(-c2ccccc2)nn1Cc1ccc(Cl)cc1 |  | inconclusive: 29.1 µM [activator, single point]
COc1ccc(C(C)C)cc1S(=O)(=O)NCCCn1ccnc1 |  | inconclusive: 20.6 µM [activator, partial curve, poor fit]
CN1CCN(c2ccc(NC(=O)c3ccc4ccccc4c3)cc2)CC1 | inconclusive: 7.87% | 
O=C1/C(=C\c2cccnc2)Sc2ccccc21 |  | inconclusive: 29.1 µM [falling, single point]
S=c1[nH]nc(-c2ccc3ccccc3n2)n1-c1cc(Cl)cc(Cl)c1 |  | inconclusive: 29.1 µM [cytotoxic, single point]
COC(=O)CSc1nc(N)c2c3c(sc2n1)CCCC3 |  | inconclusive: 29.1 µM [activator, single point]
Cc1noc(/C=C/N(C)C)c1S(=O)(=O)N1CCC(C(=O)NC(C)(C)C)CC1 |  | inconclusive: 20.6 µM [activator, partial curve]
CC1(C)C(c2ccc(Cl)cc2)=[N+]([O-])C2(CCCC/C2=N\O)N1O (configuration not stated) | inconclusive: -6.89% | 
CCOc1ccccc1C(=O)NCC(=O)NCC(C)(C)N1CCOCC1 |  | inconclusive: 18.4 µM [activator, partial curve]
Cc1cc(C(C)(C)C)oc1C(=O)N(CC(=O)NC1CCCC1)Cc1ccccc1Cl |  | inconclusive: 2.31 µM [activator, single point]
Cc1n[nH]c(=O)c2c(NC(=O)CSc3ccccc3F)oc(C)c12 | inconclusive | 
O=C(COc1ccc(Br)cc1CO)Nc1ccccc1F | inconclusive: 11.2% | 
COc1ccc(CCn2c(NCc3ccco3)nc3c2c(=O)[nH]c(=O)n3C)cc1 |  | inconclusive: 6.51 µM [falling, single point]

Filtered by structure, those above with bromine (2)
Structure (SMILES) | lipid storage change, negative = inhibition | Potency
Cc1[nH]nc2nc(SCC(=O)NCCC3=CCCCC3)n(-c3ccc(Br)cc3)c(=N)c12 | inconclusive: -56.9% | 
O=C(COc1ccc(Br)cc1CO)Nc1ccccc1F | inconclusive: 11.2% | 

The list goes on.

Structure (SMILES) | lipid storage change, negative = inhibition | Potency
O=C(NC1CCCC1)C(c1cccnc1)N(CCc1ccccc1)C(=O)c1ccco1 (configuration not stated) | inconclusive: -20.5% | 
C=CCN1C(c2ccc(Br)cc2)=CS/C1=C(/C#N)c1nnc(N2CCOCC2)n1-c1ccccc1 |  | inconclusive: 0.082 µM [activator, partial curve, poor fit]
CN(c1cccc(NC(=O)CN(c2cccc(Cl)c2)S(=O)(=O)c2ccc(Cl)cc2)c1)S(C)(=O)=O | inactive: -27.1% | 
COc1ccccc1N1CCN(C(=O)c2cc3cc(F)ccc3[nH]2)CC1 | inconclusive: -37.7% | 
Cc1cc2occ(CC(=O)O)c2cc1C | inconclusive: -20.3% | 
C[N+](C)(C)CCCCCC(=O)/C=N/O | inconclusive: 157% | 
Cc1ccc(C(=O)NCc2ccc3c(c2)OCO3)o1 | inconclusive: -38.8% | 
C=CCn1cnc2c(c1=O)c1nc3ccccc3nc1n2/N=C/c1cc(OC)c(OC)c(OC)c1 | inconclusive: 21.1% | 
COc1ccc(C(=O)NC2CCN(C(=O)Nc3ccc(F)cc3)CC2)cc1 | inconclusive: -5.1% | 
Cc1ccccc1[C@@H](NC(=O)OC(C)(C)C)C(=O)OC(C)(C)C | inconclusive: -28.7% | 
Cc1ccc(C(=O)N(CC(=O)NC2CCCC2)c2ccccc2Cl)s1 |  | inconclusive: 29.1 µM [falling, single point]
O=C(C1=C[C@@H](c2ccccc2)C[C@@H](OCCCCO)O1)N1CCOCC1 | inconclusive: -8% | 
CN1C(=O)[C@H]2[C@@H](/C=C/c3ccccc3)N3C(=O)CN(CCO)C(=O)[C@@]3(Cc3ccccc3)[C@H]2C1=O | inconclusive: 49.1% | 
Cc1nccn1-c1ccc(C(F)(F)F)cc1[N+](=O)[O-] |  | inconclusive: 0.0146 µM [activator, full curve, poor fit]
COc1ccc(CNC(=O)CN2CCN(S(=O)(=O)c3cc(Br)ccc3Br)CC2)cc1OC |  | inconclusive: 0.092 µM [falling, full curve]
COc1cc2c(cc1OC)[C@@H]1Cc3ccc(OC)c(OC)c3CN1CC2 | inconclusive: 37.4% | 
COc1ccc(OC)c(NC(=O)NCCCCc2ccccc2)c1 |  | active: 2.91 µM
CCOC(=O)N1CCN(C(=O)c2ccc3c(=O)n(-c4ccc(OC)cc4)c(=S)[nH]c3c2)CC1 | inconclusive: -77.9% | 
